The target of this assay is T1, mCherry-RILPL1 (UniProt Q5EBL4).
T1 sequence: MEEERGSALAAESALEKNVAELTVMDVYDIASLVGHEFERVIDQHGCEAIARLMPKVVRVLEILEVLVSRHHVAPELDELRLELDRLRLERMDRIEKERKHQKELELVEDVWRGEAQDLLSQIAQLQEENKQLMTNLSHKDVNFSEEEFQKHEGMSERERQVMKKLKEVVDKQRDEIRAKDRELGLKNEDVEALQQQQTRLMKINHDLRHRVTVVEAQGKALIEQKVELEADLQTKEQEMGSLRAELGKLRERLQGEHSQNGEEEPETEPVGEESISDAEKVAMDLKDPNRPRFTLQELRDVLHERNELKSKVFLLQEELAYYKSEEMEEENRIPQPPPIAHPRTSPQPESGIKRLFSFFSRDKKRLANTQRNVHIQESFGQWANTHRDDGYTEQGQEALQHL
Nature of the assay: co-IP; HEK293FT cells transfected with 3xflag-LRRK2 and mCherry-RILPL1 for 24 h, treated or not with LLOME (2 h); lysates in IP buffer (20 mM Tris-HCl pH 7.5, 150 mM NaCl, 1 mM EDTA, 0.3% Triton X-100, 10% glycerol); RFP-Trap magnetic beads 1 h at 4°C; washes with 300 mM NaCl; immunoblot.

Results on one substance are retold here after paper PMC12459091.

These are yes or no findings as the source states them, for the method shown. In cells and extracts the contact can be indirect.

Turning to “dynein-light intermediate chain (DLIC) (human (endogenous in HEK293FT))”, the binding entry is given as “no binding”.
